In paper PMC8956657:
These are yes or no findings as the source states them, for the method shown. Some results given as binding are weak or reduced against the parent protein; the word gives no strength.

The chains behind the UniProt entries cited, without tags or fusion partners. Residues count along the entry.
UniProt O60684, 73-536: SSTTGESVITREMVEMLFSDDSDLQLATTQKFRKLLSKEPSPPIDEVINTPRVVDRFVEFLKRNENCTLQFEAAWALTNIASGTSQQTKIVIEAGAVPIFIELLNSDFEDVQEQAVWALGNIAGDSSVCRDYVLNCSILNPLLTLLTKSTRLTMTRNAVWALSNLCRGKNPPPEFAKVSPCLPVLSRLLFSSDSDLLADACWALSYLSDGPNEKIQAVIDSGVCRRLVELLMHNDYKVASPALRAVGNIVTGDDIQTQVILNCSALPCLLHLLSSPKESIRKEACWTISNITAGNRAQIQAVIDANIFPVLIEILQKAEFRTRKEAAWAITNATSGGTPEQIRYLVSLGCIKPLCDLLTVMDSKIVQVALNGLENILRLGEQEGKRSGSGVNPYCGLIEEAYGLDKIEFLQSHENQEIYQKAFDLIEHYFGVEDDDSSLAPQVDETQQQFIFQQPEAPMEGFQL

Target: IMPα7 lacking the IBB domain (residues 73-536) (UniProt O60684)
Assay: native gel or EMSA; both purified

FITC-tagged MERS-CoV ORF4b NLS peptide (residues 19-39), wild type (from UniProt K9N643 19-39)
binding: binds
